According to PMC12644026:
Like-named read-outs stand apart in the source and are kept apart here. No constants are given. Whether binding was seen depends on the method and setting. In cells and extracts the contact can be indirect. These calls come from enrichment with a bait or labelling near it, and not all partners need be listed.

Chains of the proteins cited; added tags and fusions are not shown. Lines headed by an entry give the natural chain unless they say otherwise; changes in a name come on top.
UniProt P60953: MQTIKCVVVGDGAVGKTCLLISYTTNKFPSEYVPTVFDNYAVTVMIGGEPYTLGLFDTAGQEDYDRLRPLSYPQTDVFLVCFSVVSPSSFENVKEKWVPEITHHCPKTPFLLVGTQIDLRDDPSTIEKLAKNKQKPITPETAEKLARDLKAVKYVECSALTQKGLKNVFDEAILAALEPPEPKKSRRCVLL
UniProt P61586: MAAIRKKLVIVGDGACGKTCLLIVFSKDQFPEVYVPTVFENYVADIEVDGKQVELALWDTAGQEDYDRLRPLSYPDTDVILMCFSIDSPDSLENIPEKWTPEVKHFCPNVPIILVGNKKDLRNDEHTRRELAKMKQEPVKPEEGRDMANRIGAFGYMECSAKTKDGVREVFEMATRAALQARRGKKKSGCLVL
UniProt O00401: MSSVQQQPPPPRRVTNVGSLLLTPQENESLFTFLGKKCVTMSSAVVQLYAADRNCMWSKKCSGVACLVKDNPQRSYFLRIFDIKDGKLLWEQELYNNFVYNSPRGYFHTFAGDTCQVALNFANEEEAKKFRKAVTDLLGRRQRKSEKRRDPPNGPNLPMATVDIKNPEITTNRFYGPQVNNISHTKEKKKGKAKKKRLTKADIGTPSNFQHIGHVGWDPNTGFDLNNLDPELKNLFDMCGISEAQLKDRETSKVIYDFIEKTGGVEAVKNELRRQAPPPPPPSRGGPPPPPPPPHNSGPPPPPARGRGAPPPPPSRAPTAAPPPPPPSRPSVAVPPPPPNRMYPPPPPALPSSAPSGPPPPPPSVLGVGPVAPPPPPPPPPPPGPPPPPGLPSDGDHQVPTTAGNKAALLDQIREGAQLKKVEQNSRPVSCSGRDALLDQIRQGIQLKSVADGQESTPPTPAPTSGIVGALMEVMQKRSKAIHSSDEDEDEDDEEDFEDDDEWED
UniProt Q6XZF7: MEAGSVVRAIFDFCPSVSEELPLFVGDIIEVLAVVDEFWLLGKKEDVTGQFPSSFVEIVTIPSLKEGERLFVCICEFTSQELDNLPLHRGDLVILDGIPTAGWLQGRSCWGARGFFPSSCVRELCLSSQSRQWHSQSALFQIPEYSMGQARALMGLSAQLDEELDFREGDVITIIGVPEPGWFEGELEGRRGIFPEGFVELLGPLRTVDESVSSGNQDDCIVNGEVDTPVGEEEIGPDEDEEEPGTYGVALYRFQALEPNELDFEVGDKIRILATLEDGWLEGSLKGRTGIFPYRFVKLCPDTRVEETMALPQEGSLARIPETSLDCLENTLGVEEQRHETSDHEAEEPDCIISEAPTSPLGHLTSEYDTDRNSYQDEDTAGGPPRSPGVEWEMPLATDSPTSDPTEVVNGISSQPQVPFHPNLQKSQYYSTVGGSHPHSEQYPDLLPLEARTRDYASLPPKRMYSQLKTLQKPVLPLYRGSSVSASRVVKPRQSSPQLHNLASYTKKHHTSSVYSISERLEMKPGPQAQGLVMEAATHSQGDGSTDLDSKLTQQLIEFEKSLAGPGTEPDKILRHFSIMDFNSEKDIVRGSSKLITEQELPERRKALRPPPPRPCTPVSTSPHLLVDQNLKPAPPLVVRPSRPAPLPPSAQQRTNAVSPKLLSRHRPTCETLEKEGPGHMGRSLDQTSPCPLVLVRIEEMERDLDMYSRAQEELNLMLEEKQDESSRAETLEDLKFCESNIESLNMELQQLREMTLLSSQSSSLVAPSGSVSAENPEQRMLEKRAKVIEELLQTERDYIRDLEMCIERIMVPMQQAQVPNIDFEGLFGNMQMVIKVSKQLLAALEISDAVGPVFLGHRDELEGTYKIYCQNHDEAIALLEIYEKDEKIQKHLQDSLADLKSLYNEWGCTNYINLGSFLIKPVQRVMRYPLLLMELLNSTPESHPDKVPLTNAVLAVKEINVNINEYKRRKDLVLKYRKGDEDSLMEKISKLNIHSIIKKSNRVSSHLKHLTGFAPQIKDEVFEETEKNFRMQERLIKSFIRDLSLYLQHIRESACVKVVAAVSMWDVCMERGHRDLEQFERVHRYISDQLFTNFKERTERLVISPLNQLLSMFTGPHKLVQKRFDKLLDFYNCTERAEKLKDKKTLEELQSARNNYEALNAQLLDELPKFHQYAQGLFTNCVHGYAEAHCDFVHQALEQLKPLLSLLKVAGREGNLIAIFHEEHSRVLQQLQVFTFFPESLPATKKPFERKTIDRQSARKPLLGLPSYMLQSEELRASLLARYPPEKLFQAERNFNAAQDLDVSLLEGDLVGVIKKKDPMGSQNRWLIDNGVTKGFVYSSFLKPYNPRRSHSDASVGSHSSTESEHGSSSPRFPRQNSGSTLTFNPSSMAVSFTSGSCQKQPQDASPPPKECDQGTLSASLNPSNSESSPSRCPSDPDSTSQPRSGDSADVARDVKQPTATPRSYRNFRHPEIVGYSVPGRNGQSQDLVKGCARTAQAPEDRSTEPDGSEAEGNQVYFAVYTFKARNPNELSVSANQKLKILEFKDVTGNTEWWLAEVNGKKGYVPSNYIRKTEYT
UniProt O43516: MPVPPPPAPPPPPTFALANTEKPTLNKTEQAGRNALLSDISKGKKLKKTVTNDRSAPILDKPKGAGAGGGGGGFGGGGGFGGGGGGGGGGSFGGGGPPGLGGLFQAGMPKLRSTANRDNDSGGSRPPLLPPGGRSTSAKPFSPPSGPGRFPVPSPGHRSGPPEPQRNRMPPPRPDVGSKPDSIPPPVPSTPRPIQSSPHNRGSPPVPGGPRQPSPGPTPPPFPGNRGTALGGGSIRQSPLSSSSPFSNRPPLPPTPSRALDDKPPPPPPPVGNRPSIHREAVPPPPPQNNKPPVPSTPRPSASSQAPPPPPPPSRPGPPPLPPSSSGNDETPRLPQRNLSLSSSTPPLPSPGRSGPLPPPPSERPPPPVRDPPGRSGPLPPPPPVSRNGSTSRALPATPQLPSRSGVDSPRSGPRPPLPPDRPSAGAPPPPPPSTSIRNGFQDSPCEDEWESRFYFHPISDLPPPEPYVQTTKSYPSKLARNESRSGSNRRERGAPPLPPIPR
UniProt Q5JSL3: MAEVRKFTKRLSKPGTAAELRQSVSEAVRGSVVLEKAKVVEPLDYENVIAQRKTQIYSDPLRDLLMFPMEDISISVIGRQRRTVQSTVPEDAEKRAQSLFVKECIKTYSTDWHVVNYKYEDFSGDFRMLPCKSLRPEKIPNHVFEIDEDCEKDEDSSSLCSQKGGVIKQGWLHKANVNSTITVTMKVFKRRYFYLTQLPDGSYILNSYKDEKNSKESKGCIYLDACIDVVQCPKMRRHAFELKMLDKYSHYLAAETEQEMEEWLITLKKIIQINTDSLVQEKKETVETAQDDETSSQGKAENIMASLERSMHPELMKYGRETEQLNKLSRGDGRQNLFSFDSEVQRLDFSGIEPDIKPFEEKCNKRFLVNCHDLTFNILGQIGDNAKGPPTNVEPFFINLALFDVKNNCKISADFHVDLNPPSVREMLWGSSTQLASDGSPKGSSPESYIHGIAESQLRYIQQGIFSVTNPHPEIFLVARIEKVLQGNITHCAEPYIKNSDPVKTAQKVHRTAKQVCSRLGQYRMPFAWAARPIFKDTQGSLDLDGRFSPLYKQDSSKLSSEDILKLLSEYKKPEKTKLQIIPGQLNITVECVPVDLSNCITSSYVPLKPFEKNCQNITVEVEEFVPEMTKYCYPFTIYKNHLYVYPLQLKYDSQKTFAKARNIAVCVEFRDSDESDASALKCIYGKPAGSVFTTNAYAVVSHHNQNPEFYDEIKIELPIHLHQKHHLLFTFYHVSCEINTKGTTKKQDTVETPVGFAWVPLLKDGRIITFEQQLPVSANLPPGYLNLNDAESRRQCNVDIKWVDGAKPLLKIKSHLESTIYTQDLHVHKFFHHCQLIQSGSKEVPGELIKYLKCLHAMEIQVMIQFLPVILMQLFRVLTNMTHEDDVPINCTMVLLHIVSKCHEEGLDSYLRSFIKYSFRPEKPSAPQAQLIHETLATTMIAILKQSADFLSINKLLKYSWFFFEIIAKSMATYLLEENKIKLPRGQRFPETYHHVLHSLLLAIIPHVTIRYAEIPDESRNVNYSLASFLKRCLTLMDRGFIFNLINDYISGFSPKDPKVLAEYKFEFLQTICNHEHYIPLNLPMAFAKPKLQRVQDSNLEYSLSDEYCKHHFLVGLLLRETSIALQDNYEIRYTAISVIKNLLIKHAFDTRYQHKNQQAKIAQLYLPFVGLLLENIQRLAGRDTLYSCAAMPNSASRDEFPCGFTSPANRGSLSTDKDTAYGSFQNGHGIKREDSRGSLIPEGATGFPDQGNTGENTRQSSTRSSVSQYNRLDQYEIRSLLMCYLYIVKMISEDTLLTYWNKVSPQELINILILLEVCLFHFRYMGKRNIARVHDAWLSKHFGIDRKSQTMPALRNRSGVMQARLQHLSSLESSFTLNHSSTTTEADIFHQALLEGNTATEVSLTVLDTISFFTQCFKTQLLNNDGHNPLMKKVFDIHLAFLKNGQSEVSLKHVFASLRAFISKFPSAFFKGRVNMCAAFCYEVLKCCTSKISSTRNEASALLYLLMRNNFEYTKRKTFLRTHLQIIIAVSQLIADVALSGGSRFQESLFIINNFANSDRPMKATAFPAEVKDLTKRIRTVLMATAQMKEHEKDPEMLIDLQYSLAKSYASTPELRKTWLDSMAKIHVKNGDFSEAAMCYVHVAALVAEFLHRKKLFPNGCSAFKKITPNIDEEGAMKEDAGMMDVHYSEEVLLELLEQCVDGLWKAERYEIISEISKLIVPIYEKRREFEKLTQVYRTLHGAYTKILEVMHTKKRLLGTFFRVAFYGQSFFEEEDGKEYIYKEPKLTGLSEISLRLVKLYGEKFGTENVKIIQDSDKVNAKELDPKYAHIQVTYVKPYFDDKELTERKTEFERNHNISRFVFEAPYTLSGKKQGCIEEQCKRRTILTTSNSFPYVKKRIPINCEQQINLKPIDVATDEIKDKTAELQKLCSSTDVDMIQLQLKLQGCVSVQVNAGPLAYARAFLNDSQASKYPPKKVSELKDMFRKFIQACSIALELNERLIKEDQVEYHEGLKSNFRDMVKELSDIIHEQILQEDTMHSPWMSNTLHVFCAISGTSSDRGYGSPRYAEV
UniProt Q9P206: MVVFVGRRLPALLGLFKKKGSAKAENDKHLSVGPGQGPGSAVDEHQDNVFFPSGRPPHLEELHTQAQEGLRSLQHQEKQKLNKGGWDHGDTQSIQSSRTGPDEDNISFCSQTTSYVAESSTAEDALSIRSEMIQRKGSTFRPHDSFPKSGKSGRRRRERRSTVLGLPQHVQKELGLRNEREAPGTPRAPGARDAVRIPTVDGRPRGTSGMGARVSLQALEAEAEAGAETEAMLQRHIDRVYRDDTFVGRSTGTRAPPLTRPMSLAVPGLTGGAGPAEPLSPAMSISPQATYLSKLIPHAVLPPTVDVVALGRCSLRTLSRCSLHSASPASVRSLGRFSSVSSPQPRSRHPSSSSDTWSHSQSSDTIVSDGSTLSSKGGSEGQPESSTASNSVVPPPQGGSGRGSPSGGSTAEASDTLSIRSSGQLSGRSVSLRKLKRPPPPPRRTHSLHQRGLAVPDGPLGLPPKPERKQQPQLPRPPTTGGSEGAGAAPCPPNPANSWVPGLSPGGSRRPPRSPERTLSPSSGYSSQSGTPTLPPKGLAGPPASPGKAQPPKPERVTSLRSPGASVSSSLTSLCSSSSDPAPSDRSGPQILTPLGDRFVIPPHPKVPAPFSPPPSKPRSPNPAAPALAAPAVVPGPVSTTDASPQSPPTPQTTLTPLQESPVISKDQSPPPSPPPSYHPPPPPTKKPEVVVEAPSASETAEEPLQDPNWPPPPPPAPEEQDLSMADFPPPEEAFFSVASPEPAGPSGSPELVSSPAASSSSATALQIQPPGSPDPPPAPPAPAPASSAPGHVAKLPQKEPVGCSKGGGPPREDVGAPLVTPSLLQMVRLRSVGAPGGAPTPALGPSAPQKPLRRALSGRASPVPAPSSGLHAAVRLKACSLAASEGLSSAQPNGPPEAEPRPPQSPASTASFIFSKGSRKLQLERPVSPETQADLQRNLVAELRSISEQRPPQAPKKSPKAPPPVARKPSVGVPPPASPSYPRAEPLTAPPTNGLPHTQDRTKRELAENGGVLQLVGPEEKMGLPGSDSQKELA

Assays:
Assay in all cases: proximity labelling; BioID in immortalized human podocytes expressing doxycycline-inducible BirA-Rho GTPase baits; 16 h with 1 ug/mL doxycycline (0.1 ug/mL for constitutively active mutants) and 50 uM biotin; RIPA lysis; biotinylated proteins pulled down on streptavidin beads; mass spectrometry; SAINT AvgP >= 0.95; controls empty MYC-BirA vector and BirA*-Flag-GFP
[1] = molecular target: BirA-Cdc42 G15A (nucleotide-free Cdc42) (UniProt P60953)
[2] = molecular target: BirA-Cdc42 G12V (constitutively active Cdc42) (UniProt P60953)
[3] = molecular target: BirA-RhoA G14V (constitutively active RhoA) (UniProt P61586)
[4] = molecular target: BirA-RhoA G17A (nucleotide-free RhoA) (UniProt P61586)
[5] = molecular target: BirA-RhoA G17A (nucleotide-free RhoA) (UniProt P61586); remark: listed apart in the source
[6] = molecular target: BirA-Cdc42 G15A (nucleotide-free Cdc42) (UniProt P60953); remark: listed apart in the source
[7] = molecular target: BirA-RhoA G14V (constitutively active RhoA) (UniProt P61586); remark: listed apart in the source

Molecule: ARHGEF7 (from UniProt Q14155 1-803)
- binding [1]: binds

Molecule: WASL (from UniProt O00401 1-505)
- binding [2]: binds

Molecule: IRSp53 (endogenous, podocytes) (from UniProt Q9UQB8 1-552)
- binding [2]: binds

Molecule: ROCK2 (from UniProt O75116 1-1388)
- binding [3]: binds

Molecule: DNMBP (from UniProt Q6XZF7 1-1577)
- binding [1]: binds

Molecule: WIPF1 (from UniProt O43516 1-503)
- binding [2]: binds

Molecule: DOCK9 (from UniProt Q9BZ29 1-2069)
- binding [1]: binds

Molecule: DOCK11 (from UniProt Q5JSL3 1-2073)
- binding [1]: binds

Molecule: DIAPH3 (from UniProt Q9NSV4 1-1193)
- binding [3]: binds

Molecule: ARHGEF5 (from UniProt Q12774 1-1597)
- binding [4]: binds

Molecule: KIAA1522 (endogenous, podocytes) (from UniProt Q9P206 1-1035)
- binding [2]: binds

B1: ARHGEF18 (protein, UniProt Q6ZSZ5 1-1361)
chain: MGDDQEDDFPRRLSESMEDLSLDLGALQGSEYLQDLGLGAPSHSQPGETPDSRPTGEEPGRDSLFSSLAGSQDLSRRRSWERSRSCSESWRRLSLDASAVDEEPCLPRTLASLALNLPGGGLKTWTQGCLSGGGTPAESPGKECDSPKKRGRSRSVPVSFYEIRSPEISPGLEVPTPPVQGLEPPVLECMEKDHVEPDHVLIVQQVLQELRQYHGARQRACMSASPGGAHSNLTWFEFLSESEDGAGKNEKSDKSTSVKRRLSCLRSRVTRQKEKGKSPAHLKDKGQDARERRECVNGHQLLQGTFSGPSSCPLCGKPFLSSASLKEHPRGTLLSDGSPALSRNVGMTVSQKGGPQPTPSPAGPGTQLGPITGEMDEADSAFLKFKQTADDSLSLTSPNTESIFVEDPYTASLRSEIESDGHEFEAESWSLAVDAAYAKKQKREVVKRQDVLYELMQTEVHHVRTLKIMLKVYSRALQEELQFSSKAIGRLFPCADDLLETHSHFLARLKERRQESLEEGSDRNYVIQKIGDLLVQQFSGENGERMKEKYGVFCSGHNEAVSHYKLLLQQNKKFQNLIKKIGNFSIVRRLGVQECILLVTQRITKYPVLVERIIQNTEAGTEDYEDLTQALNLIKDIISQVDAKVSECEKGQRLREIAGKMDLKSSSKLKNGLTFRKEDMLQRQLHLEGMLCWKTTSGRLKDILAILLTDVLLLLQEKDQKYVFASVDSKPPVISLQKLIVREVANEEKAMFLISASLQGPEMYEIYTSSKEDRNAWMAHIQRAVESCPDEEEGPFSLPEEERKVVEARATRLRDFQERLSMKDQLIAQSLLEKQQIYLEMAEMGGLEDLPQPRGLFRGGDPSETLQGELILKSAMSEIEGIQSLICRQLGSANGQAEDGGSSTGPPRRAETFAGYDCTNSPTKNGSFKKKVSSTDPRPRDWRGPPNSPDLKLSDSDIPGSSEESPQVVEAPGTESDPRLPTVLESELVQRIQTLSQLLLNLQAVIAHQDSYVETQRAAIQEREKQFRLQSTRGNLLLEQERQRNFEKQREERAALEKLQSQLRHEQQRWERERQWQHQELERAGARLQEREGEARQLRERLEQERAELERQRQAYQHDLERLREAQRAVERERERLELLRRLKKQNTAPGALPPDTLAEAQPPSHPPSFNGEGLEGPRVSMLPSGVGPEYAERPEVARRDSAPTENRLAKSDVPIQLLSATNQFQRQAAVQQQIPTKLAASTKGGKDKGGKSRGSQRWESSASFDLKQQLLLNKLMGKDESTSRNRRSLSPILPGRHSPAPPPDPGFPAPSPPPADSPSEGFSLKAGGTALLPGPPAPSPLPATPLSAKEDASKEDVIFF
- binding [5]: binds

B2: VAV2 (protein, UniProt P52735 1-878)
chain: MEQWRQCGRWLIDCKVLPPNHRVVWPSAVVFDLAQALRDGVLLCQLLHNLSPGSIDLKDINFRPQMSQFLCLKNIRTFLKVCHDKFGLRNSELFDPFDLFDVRDFGKVISAVSRLSLHSIAQNKGIRPFPSEETTENDDDVYRSLEELADEHDLGEDIYDCVPCEDGGDDIYEDIIKVEVQQPMIRYMQKMGMTEDDKRNCCLLEIQETEAKYYRTLEDIEKNYMSPLRLVLSPADMAAVFINLEDLIKVHHSFLRAIDVSVMVGGSTLAKVFLDFKERLLIYGEYCSHMEHAQNTLNQLLASREDFRQKVEECTLKVQDGKFKLQDLLVVPMQRVLKYHLLLKELLSHSAERPERQQLKEALEAMQDLAMYINEVKRDKETLRKISEFQSSIENLQVKLEEFGRPKIDGELKVRSIVNHTKQDRYLFLFDKVVIVCKRKGYSYELKEIIELLFHKMTDDPMNNKDVKKSHGKMWSYGFYLIHLQGKQGFQFFCKTEDMKRKWMEQFEMAMSNIKPDKANANHHSFQMYTFDKTTNCKACKMFLRGTFYQGYMCTKCGVGAHKECLEVIPPCKFTSPADLDASGAGPGPKMVAMQNYHGNPAPPGKPVLTFQTGDVLELLRGDPESPWWEGRLVQTRKSGYFPSSSVKPCPVDGRPPISRPPSREIDYTAYPWFAGNMERQQTDNLLKSHASGTYLIRERPAEAERFAISIKFNDEVKHIKVVEKDNWIHITEAKKFDSLLELVEYYQCHSLKESFKQLDTTLKYPYKSRERSASRASSRSPASCASYNFSFLSPQGLSFASQGPSAPFWSVFTPRVIGTAVARYNFAARDMRELSLREGDVVRIYSRIGGDQGWWKGETNGRIGWFPSTYVEEEGIQ
- binding [5]: binds

B3: ARHGEF26 (protein, UniProt Q96DR7 1-871)
chain: MDGESEVDFSSNSITPLWRRRSIPQPHQVLGRSKPRPQSYQSPNGLLITDFPVEDGGTLLAAQIPAQVPTASDSRTVHRSPLLLGAQRRAVANGGTASPEYRAASPRLRRPKSPKLPKAVPGGSPKSPANGAVTLPAPPPPPVLRPPRTPNAPAPCTPEEDLTGLTASPVPSPTANGLAANNDSPGSGSQSGRKAKDPERGLFPGPQKSSSEQKLPLQRLPSQENELLENPSVVLSTNSPAALKVGKQQIIPKSLASEIKISKSNNQNVEPHKRLLKVRSMVEGLGGPLGHAGEESEVDNDVDSPGSLRRGLRSTSYRRAVVSGFDFDSPTSSKKKNRMSQPVLKVVMEDKEKFSSLGRIKKKMLKGQGTFDGEENAVLYQNYKEKALDIDSDEESEPKEQKSDEKIVIHHKPLRSTWSQLSAVKRKGLSQTVSQEERKRQEAIFEVISSEHSYLLSLEILIRMFKNSKELSDTMTKTERHHLFSNITDVCEASKKFFIELEARHQNNIFIDDISDIVEKHTASTFDPYVKYCTNEVYQQRTLQKLLATNPSFKEVLSRIESHEDCRNLPMISFLILPMQRVTRLPLLMDTICQKTPKDSPKYEVCKRALKEVSKLVRLCNEGARKMERTEMMYTINSQLEFKIKPFPLVSSSRWLVKRGELTAYVEDTVLFSRRTSKQQVYFFLFNDVLIITKKKSEESYNVNDYSLRDQLLVESCDNEELNSSPGKNSSTMLYSRQSSASHLFTLTVLSNHANEKVEMLLGAETQSERARWITALGHSSGKPPADRTSLTQVEIVRSFTAKQPDELSLQVADVVLIYQRVSDGWYEGERLRDGERGWFPMECAKEITCQATIDKNVERMGRLLGLETNV
- binding [6]: binds
- binding [5]: binds

B4: DIAPH2 (protein, UniProt O60879 1-1101)
chain: MEQPGAAASGAGGGSEEPGGGRSNKRSAGNRAANEEETKNKPKLNIQIKTLADDVRDRITSFRKSTVKKEKPLIQHPIDSQVAMSEFPAAQPLYDERSLNLSEKEVLDLFEKMMEDMNLNEEKKAPLRNKDFTTKREMVVQYISATAKSGGLKNSKHECTLSSQEYVHELRSGISDEKLLNCLESLRVSLTSNPVSWVNNFGHEGLGLLLDELEKLLDKKQQENIDKKNQYKLIQCLKAFMNNKFGLQRILGDERSLLLLARAIDPKQPNMMTEIVKILSAICIVGEENILDKLLGAITTAAERNNRERFSPIVEGLENQEALQLQVACMQFINALVTSPYELDFRIHLRNEFLRSGLKTMLPDLKEKENDELDIQLKVFDENKEDDLTELSHRLNDIRAEMDDMNEVYHLLYNMLKDTAAENYFLSILQHFLLIRNDYYIRPQYYKIIEECVSQIVLHCSGMDPDFKYRQRLDIDLTHLIDSCVNKAKVEESEQKAAEFSKKFDEEFTARQEAQAELQKRDEKIKELEAEIQQLRTQAQVLSSSSGIPGPPAAPPLPGVGPPPPPPAPPLPGGAPLPPPPPPLPGMMGIPPPPPPPLLFGGPPPPPPLGGVPPPPGISLNLPYGMKQKKMYKPEVSMKRINWSKIEPTELSENCFWLRVKEDKFENPDLFAKLALNFATQIKVQKNAEALEEKKTGPTKKKVKELRILDPKTAQNLSIFLGSYRMPYEDIRNVILEVNEDMLSEALIQNLVKHLPEQKILNELAELKNEYDDLCEPEQFGVVMSSVKMLQPRLSSILFKLTFEEHINNIKPSIIAVTLACEELKKSESFNRLLELVLLVGNYMNSGSRNAQSLGFKINFLCKIRDTKSADQKTTLLHFIADICEEKYRDILKFPEELEHVESASKVSAQILKSNLASMEQQIVHLERDIKKFPQAENQHDKFVEKMTSFTKTAREQYEKLSTMHNNMMKLYENLGEYFIFDSKTVSIEEFFGDLNNFRTLFLEAVRENNKRREMEEKTRRAKLAKEKAEQEKLERQKKKKQLIDINKEGDETGVMDNLLEALQSGAAFRDRRKRIPRNPDNRRVPLERSRSRHNGAISSK
- binding [7]: binds
